In PMC5017703, “The Neurite Outgrowth Inhibitory Nogo-A-Δ20 Region Is an Intrinsically Disordered Segment Harbouring Three Stretches with Helical Propensity” (PLoS ONE, 2016):
No constants are given. Whether binding was seen depends on the method and setting.

Columns and labels:
[1] = molecular target: T1, Nogo-A-Δ20 (residues 544–725 of the rat Nogo-A sequence) (rat), Q9JK11; test: NMR titration; [15N,1H]-HSQC of 15N-labelled Nogo-A-Δ20 (30, 88 or 120 μM) in PBS; ECL2 added at 1:1 and 1:3 (pH 7.4 and 6.4; 6°C and 15°C); ECL3 added at 1:3 (pH 7.4, 6°C, with or without 5 mM TCEP or 4 mM ZnCl2); chemical shift differences and intensity ratios; both purified; settings: remark: other sources report otherwise
T1 chain: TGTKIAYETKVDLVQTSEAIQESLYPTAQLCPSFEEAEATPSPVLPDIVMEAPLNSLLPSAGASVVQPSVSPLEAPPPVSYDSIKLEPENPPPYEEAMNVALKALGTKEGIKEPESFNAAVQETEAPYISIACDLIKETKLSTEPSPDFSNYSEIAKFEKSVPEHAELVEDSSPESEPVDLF

[2] = molecular target: T1, Nogo-A-Δ20 (residues 544–725 of the rat …); test: condition: 10 μM Nogo-A-Δ20 in the cell, 150 μM ECL peptide in the syringe; ITC; ECL peptide 150 μM in the syringe titrated into 10 μM Nogo-A-Δ20 in the cell, PBS pH 7.4, 25°C, MicroCal VP-ITC; both purified; settings: remark: other sources report otherwise

SILLLDSTCPVRACPVLYK [extracellular loop 3 (ECL3) of sphingosine 1-phosphate receptor 2 (S1PR2)]
binding [1]: no binding (tested: 1 to 3 ratio, 120 μM Nogo-A-Δ20) | binding [2]: no binding
